Binding data for four molecules are collected here from article PMC10803754.

Sequences of proteins named here, by UniProt entry; tags and fusion partners are left off.
UniProt Q8R0K9: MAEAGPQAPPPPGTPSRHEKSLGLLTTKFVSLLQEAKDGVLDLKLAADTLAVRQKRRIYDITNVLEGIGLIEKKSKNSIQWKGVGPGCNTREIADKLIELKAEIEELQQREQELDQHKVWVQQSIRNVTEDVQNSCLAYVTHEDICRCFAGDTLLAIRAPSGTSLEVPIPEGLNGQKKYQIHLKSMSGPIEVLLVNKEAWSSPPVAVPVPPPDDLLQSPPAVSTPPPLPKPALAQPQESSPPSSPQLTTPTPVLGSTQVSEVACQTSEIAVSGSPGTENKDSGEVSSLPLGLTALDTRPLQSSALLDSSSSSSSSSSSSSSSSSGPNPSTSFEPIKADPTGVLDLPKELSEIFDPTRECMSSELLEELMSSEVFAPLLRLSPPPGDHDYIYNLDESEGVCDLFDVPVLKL
UniProt Q61502: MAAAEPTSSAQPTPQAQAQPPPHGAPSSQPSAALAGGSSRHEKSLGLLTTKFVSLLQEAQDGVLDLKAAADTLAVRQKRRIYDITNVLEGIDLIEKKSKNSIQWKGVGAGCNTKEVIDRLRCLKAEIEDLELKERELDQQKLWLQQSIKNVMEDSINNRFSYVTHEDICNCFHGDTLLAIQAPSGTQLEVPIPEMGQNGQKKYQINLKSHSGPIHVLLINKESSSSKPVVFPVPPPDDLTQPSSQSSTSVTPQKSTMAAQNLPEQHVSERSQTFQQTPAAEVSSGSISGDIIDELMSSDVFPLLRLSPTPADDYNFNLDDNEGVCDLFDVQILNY

These are yes or no findings as the source states them, for the method shown. In cells and extracts the contact can be indirect. Here binding means that the protein was enriched with, or labelled near, the bait; the list need not be complete. Sequences can lack the tags named with a protein.

To fix the notation:
B1: TFDP-1 (protein, UniProt Q08639 1-410)
chain: MAKDASLIEANGELKVFIDQNLSPGKGVVSLVAVHPSTVNTLGKQLLPKTFGQSNVNITQQVVIGTPQRPAASNTIVVGSPHTPNTHFVSQNQTSDSSPWSAGKRNRKGEKNGKGLRHFSMKVCEKVQRKGTTSYNEVADELVAEFSAADNHILPNESAYDQKNIRRRVYDALNVLMAMNIISKEKKEIKWIGLPTNSAQECQNLEVERQRRLERIKQKQSQLQELILQQIAFKNLVQRNRQAEQQARRPPPPNSVIHLPFIIVNTSRKTVIDCSISNDKFEYLFNFDNTFEIHDDIEVLKRMGMACGLESGNCSAEDLKVARSLVPKALEPYVTEMAQGSIGGVFVTTTGSTSNGTRLSASDLSNGADGMLATSSNGSQYSGSRVETPVSYVGEDDDDDDDFNENDEED
B2: Retinoblastoma-like protein 2 (RBL2), mouse (protein, UniProt Q64700 1-1135)
chain: MASGGNQSPPPPPAAAASSEEEEEDGDAADRAQPAGSPSHQIQQRFEELCSRLNMDEAARAEAWSSYRSMSESYTLEGNDLHWLACALYVACRKSVPTVSKGTAEGNYVSLTRILRCSEQSLIEFFNKMKKWEDMANLPPHFRERTERLERNFTVSAVIFKKYEPIFQDIFKYPQEEQPRQQRGRKQRRQPCTTSEIFHFCWVLFIYAKGNFPMISDDLVNSYHLLLCALDLVYGNALQCSNRKELVNPNFKGLSEDCHPKDSKASSDPPCVIEKLCSLHDGLVLEAKGIKEHFWKPYIRKLFEKKLLKGKEENLTGFLEPGNFGESFKAVNKAYEEYVLAAGNLDERVFLGEDAEEEVGTLSRCLSAASGTESAERTQMRDILQQHLDKSKALRVCTPLTGVRYVQENSPCVTPVSTAAHSLSRLHTMLSGLRNAPSEKLERILRSCSRDPTQAIADRLKEMYEIYSQHFQPDENFSNCAKEIANKHFRFAEMLYYKVLESVIEQEQKRLGDMDLSGVLEHDAFHRSLLACCLEVVAFSHKPPGNFPFIAEIFDVPHYHFYKVIEVFIRAEDGLCREVVKHLNQIEEQILDHLAWKTKSPLWDRIRDNENRVPTCEEVMPPQNLERTDEIYIAGSPLTPRRVGEVRADAGGLGRSITSPTTLYDRYSSPTVSTTRRRLFENDSPSEGSTSGRIPPQPLVNAVPVQNVPGETVSVTPVPGQTLVTMATATVTANNGQTVTIPVQGIANENGGITFFPVQVNVGGQAQAVAGSIQPLSAQALAGSLSSQQVTGTTLQVPGPVAIQQISPGGQQQNPGQPLTSSSIRPRKTSSLALFFRKVYYLAGVRLRDLCIKLDISDELRKKIWTCFEFSIIQCTELMMDRHLDQLLMCAIYVMAKVTKEDRSFQNIMRCYRTQPQARSQVYRSVLIKGKRRNSGSSESRSHQNSPTELNTDRASRDSSPVMRSNSTLPVPQPSSAPPTPTRLTGASSDVEEEERGDLIQFYNNIYRKQIQAFAMKYSQANAQTDTPPLSPYPFVRTGSPRRVQLSQSHPIYISPHNNEAMPSPREKIFYYFSNSPSKRLREINSMIRTGETPTKKRGILLDDGSESPAKRICPENHSALLRRLQDVANDRGSQ

The test deals with T1, Multicilin tagged at the N-terminus with 3xFLAG (mouse) (mouse) (UniProt Q3UZ45).
T1 sequence: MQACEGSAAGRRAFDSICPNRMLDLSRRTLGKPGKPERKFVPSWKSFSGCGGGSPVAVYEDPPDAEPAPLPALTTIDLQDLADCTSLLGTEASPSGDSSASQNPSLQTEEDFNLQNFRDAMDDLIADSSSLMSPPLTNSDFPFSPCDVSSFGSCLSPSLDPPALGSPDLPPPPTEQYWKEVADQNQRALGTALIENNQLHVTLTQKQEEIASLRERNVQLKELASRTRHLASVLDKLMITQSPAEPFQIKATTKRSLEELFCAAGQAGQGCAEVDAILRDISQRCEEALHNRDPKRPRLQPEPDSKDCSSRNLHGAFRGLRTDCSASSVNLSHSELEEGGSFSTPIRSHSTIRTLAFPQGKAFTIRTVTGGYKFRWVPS
Kind of test: affinity purification with mass spectrometry; FLAG M2 agarose precipitation of 3xFLAG-Multicilin from lysates of MEFs infected with FLAG-MCI or FLAG-MCI+E2f4VP16 adenovirus, two days after infection; lysis buffer 50 mM HEPES-KOH pH 7.5, 500NaCl, 5 mM EDTA, 2% Triton, DNase I; eluted with FLAG peptide; non-infected MEFs as negative control.
For “E2F4 (endogenous, MEFs) (from UniProt Q8R0K9 1-410)”, the binding result is reported as “binds”.

With E2F5 (from UniProt Q61502 1-335), the binding result is “binds”.

Regarding B1, the binding result is recorded as “binds”.

As for B2, the binding result is recorded as “binds”.
